Results published in US8008547B2, “Glyphosate-N-acetyltransferase (GAT) genes” (E.I. duPont de Nemours, priority 2000, dated 2011).
The name of at least one read-out is uncertain.

Experiment: Standard protocol for determination of kcat and KM (continuous spectrophotometric assay, Acetyl CoA hydrolysis at 235 nm)
Format: biochemical
Details: kcat divided by KM for glyphosate
Procedure: KM was calculated from the initial reaction rates obtained from concentrations of glyphosate ranging from 0.125 to 10 mM, using the Lineweaver-Burke transformation of the Michaelis-Menten equation. kcat/KM was determined by dividing the value determined for kcat by the value determined for KM.
Using this methodology, kinetic parameters for a number of GAT polypeptides exemplified herein were determined. For example, the kcat, KM and kcat/KM for the GAT polypeptide corresponding to SEQ ID NO:445 have been determined to be 322 min^−1, 0.5 mM and 660 mM^−1 min^−1, respectively, using the assay conditions described above. The kcat, KM and kcat/KM for the GAT polypeptide corresponding to SEQ ID NO:457 have been determined to be 118 min^−1, 0.1 mM and 1184 mM^−1 min^−1, respectively, using the assay conditions described above. The kcat, KM and kcat/KM for the GAT polypeptide corresponding to SEQ ID NO:300 have been determined to be 296 min^−1, 0.65 mM and 456 mM^−1 min^−1, respectively, using the assay conditions described above. One of skill in the art can use these numbers to confirm that a GAT activity assay is generating kinetic parameters for a GAT suitable for comparison with the values given herein. […] Kinetic parameters for a number of GAT polypeptide variants were determined according to this methodology and are provided in Table 3.

B1: SEQ ID NO: 269: GAT polypeptide (protein)
chain: MIEVKPINAEDTYEIRHRILRPNQPLEACKYETDLLGGTLHLGGYYRGKLISIASFHQAEHPELEGQKQYQLRGMATLEEYREQKAGSTLIRHAEELLRKKGADLLWCNARTSASGYYKKLGFSEQGEVYDIPPTGPHILMYKKLT
modifications: 10_12D7
notes: GAT polypeptide
Kcat/KM: 717 M⁻¹ s⁻¹
